From patent US20250032425A1, “FIRST IN CLASS USE OF ESTROGEN RECEPTOR BETA AGONISTS IN TREATING ANGELMAN SYNDROME AND RELEVANT AUTISM SPECTRUM DISORDERS” (BROWN UNIVERSITY, priority 2023, published 2025)

Test system: UBE3A-deficient iOPCs and iOLs
Assay: Oligodendrocyte differentiation of UBE3A-deficient iOPCs into iOLs (immunoblotting of Ki67, MAG, CNPase)
Format: cell-based, human
Conditions: UBE3A-deficient cells; clemastine (2.5 μM); 24 hours
From the text: FIGS. 25A-25I depict the role of UBE3A via ESR-β signaling on OPC proliferation and oligodendrocyte differentiation. FIG. 25A: qPCR to evaluate the differentiation and maturation for myelination of iOPCs after persistent UBE3A knockdown, by measuring mRNA transcripts of UBE3A and myelination markers MBP and PLP1 in iOPCs treated with siNC or siUBE3A and differentiated in vitro. MBP and PLP1 mRNA expression decreased in iOLs treated with siUBE3A. n=3 independent experiments. FIG. 25B: In vitro myelination assays analyzed the effect of persistent UBE3A knockdown on iOPCs differentiation and maturation in nano-fiber-based cultures, with immunofluorescent staining of MBP (magenta) and DAPI (blue) and imaging of nano-fibers (grey). Quantification by the area (left graph) and density (right graph) of MBP fluorescent signals (normalized to siNC=1.0). MBP area and intensity decreased in cells treated with siUBE3A. n=3 experiments. Scale bar: 25 μm. […] Protein levels of ESR-β in UBE3A-deficient iOPCs and subsequently differentiated iOLs were quantified, normalized against the loading control GAPDH, and expressed relative to the iOPC+siNC control condition (set at 1.0). […] FIG. 25D: The effects of AC-186 (10 M) and clemastine (2.5 μM) on OPC proliferation (24 hours) and oligodendrocyte differentiation (3 days) were assessed via immunoblotting. […]

CN1CCC[C@@H]1CCO[C@](C)(c1ccccc1)c1ccc(Cl)cc1 [clemastine, Clemastine, reference compound]
proliferation (Ki67), FIG. 25D: without affecting proliferation
